Test results published in patent US20160053025A1.
These are yes or no findings as the source states them, for the method shown. Some binding calls cover weakened binding; strength is not graded here.

Chains of the proteins cited; added tags and fusions are not shown. Lines headed by an entry give the natural chain unless they say otherwise; changes in a name come on top. Residues count along the entry.
UniProt Q02763, residues 23-745: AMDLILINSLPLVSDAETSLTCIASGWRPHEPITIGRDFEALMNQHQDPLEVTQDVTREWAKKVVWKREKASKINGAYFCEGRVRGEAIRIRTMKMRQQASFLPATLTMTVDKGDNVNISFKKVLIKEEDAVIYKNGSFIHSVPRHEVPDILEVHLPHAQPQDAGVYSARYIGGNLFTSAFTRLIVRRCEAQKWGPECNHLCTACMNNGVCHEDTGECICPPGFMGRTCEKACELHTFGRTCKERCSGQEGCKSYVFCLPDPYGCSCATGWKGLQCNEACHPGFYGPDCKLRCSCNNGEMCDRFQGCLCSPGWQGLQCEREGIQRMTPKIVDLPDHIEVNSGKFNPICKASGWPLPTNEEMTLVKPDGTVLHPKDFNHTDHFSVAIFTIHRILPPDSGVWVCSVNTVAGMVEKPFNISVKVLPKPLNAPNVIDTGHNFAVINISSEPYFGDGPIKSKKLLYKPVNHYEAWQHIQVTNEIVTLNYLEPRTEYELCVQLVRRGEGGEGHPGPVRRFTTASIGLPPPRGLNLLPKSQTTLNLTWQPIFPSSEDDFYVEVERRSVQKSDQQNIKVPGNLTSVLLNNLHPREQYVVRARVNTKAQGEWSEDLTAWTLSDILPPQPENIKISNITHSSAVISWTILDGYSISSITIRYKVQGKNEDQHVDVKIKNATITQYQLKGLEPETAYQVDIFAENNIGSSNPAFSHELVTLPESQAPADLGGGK
UniProt O15123: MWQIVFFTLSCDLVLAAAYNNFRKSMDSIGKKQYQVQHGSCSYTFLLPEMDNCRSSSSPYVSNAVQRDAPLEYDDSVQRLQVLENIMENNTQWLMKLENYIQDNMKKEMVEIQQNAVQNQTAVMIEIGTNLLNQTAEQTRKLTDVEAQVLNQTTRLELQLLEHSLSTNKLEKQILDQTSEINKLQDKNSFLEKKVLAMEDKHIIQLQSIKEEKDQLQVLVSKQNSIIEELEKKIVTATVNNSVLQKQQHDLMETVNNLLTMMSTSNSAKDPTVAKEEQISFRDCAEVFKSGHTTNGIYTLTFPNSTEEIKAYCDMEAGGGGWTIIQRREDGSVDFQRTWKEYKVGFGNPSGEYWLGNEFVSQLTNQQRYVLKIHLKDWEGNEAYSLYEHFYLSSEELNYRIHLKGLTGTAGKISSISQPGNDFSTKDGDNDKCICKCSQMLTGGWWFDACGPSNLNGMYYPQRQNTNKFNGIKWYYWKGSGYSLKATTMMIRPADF

Target: hTie2-Fc (R&D Systems) (human) (UniProt Q02763)
Assay: Complex ELISA: plate coated with Tie2-Fc (4 ug/ml) or BSA, FLAG-Ang2 0.25 ug/ml, held Ang2 shown by 10D6 2 ug/ml and anti-mouse IgG-HRP, OD450

FLAG-tagged hAng-2 (from UniProt O15123 19-496) (ligand)
binding: binds
